Values quoted from earlier work in patent publication US20030008847A1, “Treatment of diabetes and related pathologies” (Medicure, Inc., priority 1999, published 2003).
At least one structure is not confirmed: it was looked up by name or label, or the drawing left a doubt.

Test system: sucrose induced hypertension in rats
Conditions: Madar et al., Isr J Med Sci 33:153-159; cited from earlier work

In the case of `C[C@H]1O[C@H](O[C@H]2[C@H](O)[C@@H](O)[C@@H](O[C@H]3[C@H](O)[C@@H](O)C(O)O[C@@H]3CO)O[C@@H]2CO)[C@H](O)[C@@H](O)[C@@H]1N[C@H]1C=C(CO)[C@@H](O)[C@H](O)[C@H]1O` (stereo partly shown) [Acarbose], the blood pressure is given as “reduces blood pressure”.
